# Where a name gives a salt, the structure may show the parent alone. Some results were stated once for a whole list of compounds, not compound by compound.
# Target: T1, human FPTase (Homo sapiens, UniProt P49354+P49356)
# T1 construct: made in house
# Test: In vitro inhibition of ras farnesyl transferase (human FPTase assay, [3H]-FPP incorporation into Ras-CVIM)
# Type: biochemical
# Conditions: 100 nM Ras-CVIM, 30 min, read-out: IC50, inhibitory activity against human FPTase
row,SMILES,IC50 [µM]
1,"N#Cc1ccc(Cn2cncc2CN2C(=O)C(=O)N(c3ccccc3)C[C@@H]2Cc2ccccc2)cc1 [Example 5, (S)-5-Benzyl-[1-(4-cyanobenzyl)-5-imidazolylmethyl]-1-phenyl-2,3-piperazinedione hydrochloride]",≤ 10
2,"Cc1ncc(CN2C(=O)C(=O)N(c3cccc(OC(F)(F)F)c3)C[C@@H]2CC(C)C)n1Cc1ccc(C#N)cc1 [Example 6, (S)-4-[1-(4-cyanobenzyl)-2-methyl-5-imidazolylmethyl]-5-(2-methyl-1-propyl)-1-[3-(trifluoromethoxy)phenyl]-2,3-piperazinedione hydrochloride]",≤ 10
3,"Cc1ncc(CN2CCN(c3ccccc3)C(=O)C2=O)n1Cc1ccc(C#N)cc1 [Example 7, 4-[1-(4-cyanobenzyl)-2-methyl-5-imidazolylmethyl]-1-phenylpiperazine-2,3-dione hydrochloride]",≤ 10
4,"Cc1cccc(N2CCN(c3c[nH]cn3)C(=O)C2=O)c1C [Example 8, 1-(4-imidazolyl)-4-(2,3-dimethylphenyl)piperazine-2,3-dione hydrochloride]",≤ 10
5,"Cc1cccc(N2CCN(c3cncn3Cc3ccc(C#N)cc3)C(=O)C2=O)c1C [Example 9, 1-[1-(4-cyanobenzyl)-5-imidazolyl]-4-(2,3-dimethylphenyl)piperazine-2,3-dione hydrochloride]",≤ 10
